Laboratory results as given in paper PMC11120891.
These are yes or no findings as the source states them, for the method shown. In cells and extracts the contact can be indirect. Some entries that bind do so weakly or less than the wild type.

Sequences of proteins named here, by UniProt entry; tags and fusion partners are left off.
UniProt P08263: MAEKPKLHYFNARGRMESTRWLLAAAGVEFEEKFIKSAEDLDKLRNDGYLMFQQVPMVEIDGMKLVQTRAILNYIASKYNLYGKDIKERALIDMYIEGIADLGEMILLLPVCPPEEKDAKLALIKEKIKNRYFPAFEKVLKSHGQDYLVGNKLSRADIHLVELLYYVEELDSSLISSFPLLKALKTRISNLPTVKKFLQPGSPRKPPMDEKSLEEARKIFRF

T1: fatty acid binding protein 1 (FABP1) (human) (UniProt P07148)
T1 sequence: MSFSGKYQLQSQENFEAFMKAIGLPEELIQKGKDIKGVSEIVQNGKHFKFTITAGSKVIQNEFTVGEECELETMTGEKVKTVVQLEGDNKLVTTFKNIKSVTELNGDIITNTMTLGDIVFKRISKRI


Columns and labels:
[1] = target: T1, fatty acid binding protein 1 (FABP1) (human); assay: co-IP; L02 cells transfected 48 h, lysed in Pierce IP Lysis Buffer; supernatant incubated overnight with 4 µg FABP1 antibody, magnetic beads 3 h; SDS-PAGE and immunoblot
[2] = target: glutathione S-transferase alpha 1 (GSTA1), His-tagged (human) (UniProt P08263); assay: co-IP; L02 cells transfected 48 h, lysed in Pierce IP Lysis Buffer; lysate pre-cleared with Protein A/G beads and non-specific IgG, then His-tag antibody and beads overnight at 4 °C; immunoblot (the paper's 'His pull-down')

binding [1]	binding [2]	Molecule
binds	–	glutathione S-transferase alpha 1 (GSTA1), His-tagged (from UniProt P08263 1-222) (enzyme)
–	binds	fatty acid binding protein 1 (FABP1) (protein, UniProt P07148 1-127) MSFSGKYQLQSQENFEAFMKAIGLPEELIQKGKDIKGVSEIVQNGKHFKFTITAGSKVIQNEFTVGEECELETMTGEKVKTVVQLEGDNKLVTTFKNIKSVTELNGDIITNTMTLGDIVFKRISKRI
